Values of other authors, collected in patent US20220160867A1, “METHODS AND COMPOSITIONS COMPRISING CATIONIC LIPIDS FOR IMMUNOTHERAPY BY DIRECT TUMOR INJECTION” (PDS Biotechnology Corporation, priority 2020, published 2022).
At least one structure is not confirmed: it was looked up by name or label, or the drawing left a doubt.

System: stage IA-IIA cutaneous T-cell lymphoma (CTCL)
Details: cited from earlier work
[1] = T-cell receptor sequencing and flow cytometry

**Q.** For `CCOCc1nc2c(N)nc3ccccc3c2n1CC(C)(C)O` [Resiquimod], which full clinical benefit (12 patients, topical) is on record?
**A.** 30 % of the patients

**Q.** And the partial benefit (12 patients, topical)?
**A.** 75 % of patients

**Q.** And the “complete eradication of clonal malignant T cells” value [1]?
**A.** 30%

**Q.** What about the “decrease in clonal malignant T cells” value [1] of the same molecule?
**A.** 90 % of the patients
